PubChem BioAssay AID743121 – NCATS | 2013
Assay: 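Knock-downs that sensitise breast cancer cells to camptothecin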 (primary screen). Cell system: MDA-MB-231 cells, a human breast cancer line. Reagents: single siRNA against human genes, 20 nM siRNA (0.8 pmol per well). Duration: 120 h (drug added 48 h after transfection, read 72 h later). Challenge: camptothecin 20 nM (about EC30) for 72 h; vehicle 0.1% DMSO in parallel plates. Measurement: 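Cell viability by ATP luminescence (CellTiter-Glo) as % of non-targeting siRNA wells, and the log2 ratio of viability without drug over viability with camptothecin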. Direction: log2 vehicle/camptothecin viability: higher = stronger sensitisation to camptothecin; viability with camptothecin: higher = more viable cells. Hit rule: 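Active genes have an RSA gene-level p-value below 0.001, computed from the ratios of their separate siRNAs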.
Here is a random part of about 26,000 reagents tested. In the full data, 167 (0.63%) are marked active. 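Calls are per gene from RSA p-values that are not deposited; an individual active-marked siRNA can sensitise only weakly.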 The numbers tell different reagents against one gene apart. Further read-outs or replicates are left out here. No sequences are given here.

| target gene | reagent | log2 vehicle/camptothecin viability | viability with camptothecin (% of control) | Outcome |
| --- | --- | --- | --- | --- |
| HASPIN (histone H3 associated protein kinase) | 1 | -0.32 | 103 | inactive |
| HASPIN (histone H3 associated protein kinase) | 2 | -0.299 | 4.96 | inactive |
| HASPIN (histone H3 associated protein kinase) | 3 | -0.695 | 87.1 | inactive |
| HASPIN (histone H3 associated protein kinase) | 4 | 0.0764 | 73.8 | inactive |
| TENM1 (teneurin transmembrane protein 1) | 1 | -0.118 | 117 | inactive |
| TENM1 (teneurin transmembrane protein 1) | 2 | -0.268 | 27.3 | inactive |
| TENM1 (teneurin transmembrane protein 1) | 3 | -0.223 | 61.5 | inactive |
| TENM1 (teneurin transmembrane protein 1) | 4 | -0.11 | 120 | inactive |
| PRODH (proline dehydrogenase 1) | 1 | -0.121 | 74.9 | inactive |
| HLTF (helicase like transcription factor) | 1 | -0.155 | 108 | inactive |
| HLTF (helicase like transcription factor) | 2 | -0.259 | 113 | inactive |
| HLTF (helicase like transcription factor) | 3 | -0.153 | 111 | inactive |
| HLTF (helicase like transcription factor) | 4 | -0.229 | 109 | inactive |
| TRIP11 (thyroid hormone receptor interactor 11) | 1 | 0.269 | 73.4 | inactive |
| TRIP11 (thyroid hormone receptor interactor 11) | 2 | 0.149 | 89.1 | inactive |
| TRIP11 (thyroid hormone receptor interactor 11) | 3 | -0.0486 | 103 | inactive |
| F3 (coagulation factor III, tissue factor) | 1 | -0.0662 | 77.5 | inactive |
| F3 (coagulation factor III, tissue factor) | 2 | -0.365 | 75 | inactive |
| F3 (coagulation factor III, tissue factor) | 3 | 0.0493 | 74.7 | inactive |
| F3 (coagulation factor III, tissue factor) | 4 | -0.00836 | 43.8 | inactive |
| ZNRF2 (zinc and ring finger 2) | 1 | 0.159 | 49.4 | inactive |
| ZNRF2 (zinc and ring finger 2) | 2 | 1.48 | 29 | inactive |
| ZNRF2 (zinc and ring finger 2) | 3 | -0.457 | 85.1 | inactive |
| GPX5 (glutathione peroxidase 5) | 1 | -0.595 | 91.6 | inactive |
| GPX5 (glutathione peroxidase 5) | 2 | -0.337 | 54.4 | inactive |
| GPX5 (glutathione peroxidase 5) | 3 | -0.489 | 56 | inactive |
| GPX5 (glutathione peroxidase 5) | 4 | -0.0415 | 96.7 | inactive |
| HOMER2 (homer scaffold protein 2) | 1 | -0.156 | 101 | inactive |
| HOMER2 (homer scaffold protein 2) | 2 | -0.383 | 80 | inactive |
| HOMER2 (homer scaffold protein 2) | 3 | -0.0593 | 89.1 | inactive |
| HOMER2 (homer scaffold protein 2) | 4 | -0.609 | 100 | inactive |
| NSMF | 1 | 0.235 | 44.2 | inactive |
| NSMF | 2 | 0.538 | 42.7 | inactive |
| NSMF | 3 | -0.0662 | 85.9 | inactive |
| NSMF | 4 | 0.0151 | 30.5 | inactive |
| PSMB7 (proteasome 20S subunit beta 7) | 1 | -0.369 | 29.3 | inactive |
| PSMB7 (proteasome 20S subunit beta 7) | 2 | -0.358 | 8.87 | inactive |
| PSMB7 (proteasome 20S subunit beta 7) | 3 | -0.481 | 48.2 | inactive |
| GBA2 (glucosylceramidase beta 2) | 1 | -0.252 | 114 | inactive |
| GBA2 (glucosylceramidase beta 2) | 2 | -0.394 | 77.5 | inactive |
| GBA2 (glucosylceramidase beta 2) | 3 | -0.143 | 49.9 | inactive |
| GBA2 (glucosylceramidase beta 2) | 4 | -0.318 | 81.9 | inactive |
| FOSB (FosB proto-oncogene, AP-1 transcription factor subunit) | 1 | -0.355 | 91.8 | inactive |
| FOSB (FosB proto-oncogene, AP-1 transcription factor subunit) | 2 | -0.36 | 57.8 | inactive |
| FOSB (FosB proto-oncogene, AP-1 transcription factor subunit) | 3 | -0.238 | 50 | inactive |
| FOSB (FosB proto-oncogene, AP-1 transcription factor subunit) | 4 | -0.216 | 46.3 | inactive |
| COL1A1 (collagen type I alpha 1 chain) | 1 | 0.071 | 48.4 | inactive |
| COL1A1 (collagen type I alpha 1 chain) | 2 | -0.152 | 121 | inactive |
| COL1A1 (collagen type I alpha 1 chain) | 3 | -0.0642 | 84.4 | inactive |
| COL1A1 (collagen type I alpha 1 chain) | 4 | 0.103 | 58.9 | inactive |
| PHGDH (phosphoglycerate dehydrogenase) | 1 | -0.266 | 82.4 | inactive |
| PHGDH (phosphoglycerate dehydrogenase) | 2 | -0.141 | 103 | inactive |
| PHGDH (phosphoglycerate dehydrogenase) | 3 | 0.169 | 107 | inactive |
| NUCLEOLIN (nucleolin multifunctional protein) | 1 | -0.265 | 59.2 | inactive |
| NUCLEOLIN (nucleolin multifunctional protein) | 2 | -0.283 | 63.8 | inactive |
| NUCLEOLIN (nucleolin multifunctional protein) | 3 | -0.432 | 79.2 | inactive |
| NUCLEOLIN (nucleolin multifunctional protein) | 4 | -0.255 | 59.6 | inactive |
| ANKRD37 (ankyrin repeat domain 37) | 1 | 0.037 | 65.5 | inactive |
| ANKRD37 (ankyrin repeat domain 37) | 2 | 0.0387 | 99 | inactive |
| ANKRD37 (ankyrin repeat domain 37) | 3 | 0.0304 | 111 | inactive |
| ANKRD37 (ankyrin repeat domain 37) | 4 | -0.0844 | 92.9 | inactive |
| GALE (UDP-galactose-4-epimerase) | 1 | -0.527 | 59.4 | inactive |
| GALE (UDP-galactose-4-epimerase) | 2 | -0.0654 | 75.9 | inactive |
| GALE (UDP-galactose-4-epimerase) | 3 | -0.447 | 125 | inactive |
| GALE (UDP-galactose-4-epimerase) | 4 | -0.467 | 103 | inactive |
| PIP5K1C (phosphatidylinositol-4-phosphate 5-kinase type 1 gamma) | 1 | -0.149 | 69.9 | inactive |
| PIP5K1C (phosphatidylinositol-4-phosphate 5-kinase type 1 gamma) | 2 | 0.179 | 57.1 | inactive |
| PIP5K1C (phosphatidylinositol-4-phosphate 5-kinase type 1 gamma) | 3 | -0.294 | 120 | inactive |
| PIP5K1C (phosphatidylinositol-4-phosphate 5-kinase type 1 gamma) | 4 | -0.0764 | 68.7 | inactive |

11 consecutive records from above, quoted:
| target gene | reagent | log2 vehicle/camptothecin viability | viability with camptothecin (% of control) | Outcome |
| --- | --- | --- | --- | --- |
| ANKRD37 (ankyrin repeat domain 37) | 1 | 0.037 | 65.5 | inactive |
| ANKRD37 (ankyrin repeat domain 37) | 2 | 0.0387 | 99 | inactive |
| ANKRD37 (ankyrin repeat domain 37) | 3 | 0.0304 | 111 | inactive |
| ANKRD37 (ankyrin repeat domain 37) | 4 | -0.0844 | 92.9 | inactive |
| GALE (UDP-galactose-4-epimerase) | 1 | -0.527 | 59.4 | inactive |
| GALE (UDP-galactose-4-epimerase) | 2 | -0.0654 | 75.9 | inactive |
| GALE (UDP-galactose-4-epimerase) | 3 | -0.447 | 125 | inactive |
| GALE (UDP-galactose-4-epimerase) | 4 | -0.467 | 103 | inactive |
| PIP5K1C (phosphatidylinositol-4-phosphate 5-kinase type 1 gamma) | 1 | -0.149 | 69.9 | inactive |
| PIP5K1C (phosphatidylinositol-4-phosphate 5-kinase type 1 gamma) | 2 | 0.179 | 57.1 | inactive |
| PIP5K1C (phosphatidylinositol-4-phosphate 5-kinase type 1 gamma) | 3 | -0.294 | 120 | inactive |
